Data on 2 substances can be found in article PMC6899445.

Sequences of proteins named here, by UniProt entry; tags and fusion partners are left off. Residues count along the entry.
UniProt Q62765, residues 46-843: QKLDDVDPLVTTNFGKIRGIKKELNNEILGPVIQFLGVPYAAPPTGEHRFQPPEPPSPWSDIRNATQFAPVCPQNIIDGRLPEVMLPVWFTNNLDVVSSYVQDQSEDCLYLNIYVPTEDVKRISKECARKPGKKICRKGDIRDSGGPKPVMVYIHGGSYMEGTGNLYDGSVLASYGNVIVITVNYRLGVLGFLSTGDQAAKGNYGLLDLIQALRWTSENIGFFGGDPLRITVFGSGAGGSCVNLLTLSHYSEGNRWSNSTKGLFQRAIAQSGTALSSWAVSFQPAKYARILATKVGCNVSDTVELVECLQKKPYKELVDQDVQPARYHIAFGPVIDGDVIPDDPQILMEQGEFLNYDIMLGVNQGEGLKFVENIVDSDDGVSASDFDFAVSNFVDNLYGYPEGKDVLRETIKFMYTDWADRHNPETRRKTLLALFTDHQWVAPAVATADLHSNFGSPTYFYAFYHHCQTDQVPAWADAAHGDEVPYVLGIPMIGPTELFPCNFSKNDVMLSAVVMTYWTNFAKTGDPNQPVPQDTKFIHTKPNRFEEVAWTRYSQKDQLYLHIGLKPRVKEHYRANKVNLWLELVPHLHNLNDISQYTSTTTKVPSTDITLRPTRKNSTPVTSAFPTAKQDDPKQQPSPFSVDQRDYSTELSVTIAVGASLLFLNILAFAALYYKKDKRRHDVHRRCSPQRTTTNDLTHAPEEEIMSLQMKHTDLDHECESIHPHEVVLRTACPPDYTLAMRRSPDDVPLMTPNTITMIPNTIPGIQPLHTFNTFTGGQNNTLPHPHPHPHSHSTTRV

No constants are given. Whether binding was seen depends on the method and setting. Binding seen in cells or lysates may run through a third protein. Binding calls can cover weak binding; strength is not graded here. For part of these data: Tags and fused reporters may be left off the sequences shown.

In test [1] the target is GST fused to the large extracellular loop (LEL) of TSPAN5 (human) (UniProt P62079). As to the kind of experiment: pull-down; GST fusion proteins on glutathione Sepharose beads incubated 3 h at 4 °C with adult rat hippocampus and cortex lysates in RIPA buffer; blots; only the target purified.
Test [2] addresses GST fused to the C terminus (Ct) of TSPAN5 (human) (UniProt P62079). The description is as above.
The target of test [3] is T1, full-length TSPAN5-GFP, wild-type (human) (UniProt P62079).
T1 sequence: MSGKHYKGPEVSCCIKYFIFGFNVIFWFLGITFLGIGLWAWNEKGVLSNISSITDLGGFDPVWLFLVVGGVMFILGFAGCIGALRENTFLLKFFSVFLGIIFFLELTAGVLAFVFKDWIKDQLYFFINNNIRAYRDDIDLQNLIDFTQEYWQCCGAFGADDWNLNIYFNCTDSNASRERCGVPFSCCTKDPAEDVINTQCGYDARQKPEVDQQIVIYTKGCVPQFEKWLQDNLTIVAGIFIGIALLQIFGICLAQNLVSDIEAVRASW
As to the kind of experiment: co-IP; HEK293 cells transfected with TSPAN5-GFP and HA-tagged NLG1 constructs, lysed in RIPA buffer; GFP-Trap magnetic beads 1 h at 4 °C; blots.

As to “neuroligin-1 (from UniProt Q62765 46-843)”, the binding entry in test [1] is listed as “binds”; in test [2] it was “binds weakly”.

In the case of “HA-tagged NLG1 ΔC mutant (domain or fragment)”, the binding entry in test [3] is listed as “binds”.
